Measured values taken from US20250134667A1 (priority 2022, published 2025).
Ends that are not written are not given here.

Test: general procedure: Fmoc solid-phase peptide synthesis; Rink Amide MBHA resin; HBTU/DIPEA
Conditions: whole synthesis, liquid chromatography, scale of the general procedure 50 mg resin

For “GKCSTRGRKSSRRKK-NH2 (C-terminus assumed)”, the “final HPLC purity” value was 98.2%.
